Results are given in words; binding and its absence hold for the method and conditions named. Some results given as binding are weak or reduced against the parent protein; the word gives no strength.
Tests used:
[1] = biological target: T1, human Nrp1 protein (BIAcore analyte) (human, UniProt O14786 22-586, limits assumed); experiment: BIAcore (FIG. 11)
T1 construct: no residue range for such an Nrp1 construct is printed; also called neuropilin-1
T1 sequence (looked up): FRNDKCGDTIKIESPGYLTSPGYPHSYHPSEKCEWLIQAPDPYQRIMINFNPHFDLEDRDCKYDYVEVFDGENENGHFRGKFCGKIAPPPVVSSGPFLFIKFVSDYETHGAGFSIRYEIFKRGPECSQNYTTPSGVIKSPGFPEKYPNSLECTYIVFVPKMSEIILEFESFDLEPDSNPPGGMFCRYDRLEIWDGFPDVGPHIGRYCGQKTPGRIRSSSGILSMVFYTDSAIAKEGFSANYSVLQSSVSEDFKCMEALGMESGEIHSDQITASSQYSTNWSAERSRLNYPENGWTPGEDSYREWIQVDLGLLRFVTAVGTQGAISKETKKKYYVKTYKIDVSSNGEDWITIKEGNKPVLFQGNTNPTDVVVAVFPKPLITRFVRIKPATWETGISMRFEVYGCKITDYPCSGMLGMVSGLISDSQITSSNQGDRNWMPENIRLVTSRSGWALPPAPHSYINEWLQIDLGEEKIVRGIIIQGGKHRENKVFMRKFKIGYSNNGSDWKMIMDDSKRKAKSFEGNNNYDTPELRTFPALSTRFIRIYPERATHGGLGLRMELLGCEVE

[2] = biological target: T1, human Nrp1 protein (BIAcore analyte); experiment: BIAcore, IgG immobilized, 500 nM human NRP protein injected, 25 C
[3] = biological target: T1, human Nrp1 protein (BIAcore analyte); experiment: BIAcore (SPR), 500 nM Nrp protein injected over immobilized IgG at 25 C

Measured: binding

B1: anti-panNrp^A antibody, clone YW68.11.26 (IgG) (antibody, V domains shown)
VH: EVQLVESGGGLVQPGGSLRLSCAASGFTISGYGIHWVRQAPGKGLEWVAYIYPDSGYTDYADSVKGRFTISADTSKNTAYLQMNSLRAEDTAVYYCAREDFRNRRRLWYVMDYWGQGT
VL: DIQMTQSPSSLSASVGDRVTITCRASQDVSTAVAWYQQKPGKAPKLLIYSASFLYSGVPSRFSGSGSGTDFTLTDSSLQPEDFATYYCQQAWAYLTTFGQGTKVEIKR
notes: Human IgG1 from a synthetic phage library; immobilized as IgG on the BIAcore chip
binds: all assays above

Reference: patent publication US8318163 (Genentech, dated 2012)
